The list shows only some results of the screen, not a fair sample: it gathers some chemical classes. Other doses and runs of a compound may be missing. T/C is the treated group as % of the vehicle group. Schedules are NCI's codes, read here as Q, the interval in days (D) or hours (H), X, the number of doses. Some T/C values are marked as having no survivor count here; that says nothing about deaths at the dose. Some entries were tested several times; the results are listed from low to high.

This assay relates to nude mice, HT29 intrarenal xenograft, tumor weight T/C. Kind of assay: NCI In Vivo Anticancer Drug Screen. Data for tumor model HT29;CX-1 Human Adenocarcinoma (MER+) (intrarenal inoculation) in NU/NU Swiss (nude) mice. The following applies: T/C endpoint: mean tumor weight change, higher T/C = larger tumour. The protocol: The antitumor activity of compounds was measured in mice bearing transplantable tumors. Survival or tumor size were measured and the results are expressed as the measurement made in the treated group (T) divided by the measurement made in the vehicle treated control group (C). The tumor model used in this assay is HT29;CX-1 Human Adenocarcinoma (MER+) (intrarenal inoculation) in NU/NU Swiss (nude) mice

The mark [1] stands for this setting: dose: 0.12 mg/kg/injection, schedule: Q01DX010 (sc), vehicle: Klucel (hydroxypropylcellulose) (HPC), evaluated on day 20.
[2] abbreviates: dose: 0.25 mg/kg/injection, schedule: Q01DX010 (sc), vehicle: Klucel (hydroxypropylcellulose) (HPC), evaluated on day 20.
Where [3] appears, read: dose: 0.5 mg/kg/injection, schedule: Q01DX010 (sc), vehicle: Klucel (hydroxypropylcellulose) (HPC), evaluated on day 20.

Turning to `CC1=C[C@H]2O[C@@H]3C[C@H]4OC(=O)/C=C\C=C\C(C(C)O)OCC(O)C(C)CC(=O)OC[C@@]2(C[C@@H]1O)[C@]4(C)[C@@]31CO1` (stereo partly specified), the T/C is, setting by setting: under setting [1], 23 % of control [survivor count not shown]; under setting [2], 54 % of control [survivor count not shown]; under setting [3], 23 % of control [survivor count not shown].

Take `CC1=CC2OC3CC4OC(=O)/C=C/C=C/C(C(C)O)OCC(O)C(C)CC(=O)OCC2(CC1O)C4(C)C31CO1` (stereo unspecified): the T/C is 52 % of control [survivor count not shown] (dose: 0.06 mg/kg/injection, schedule: Q01DX010 (sc), vehicle: Klucel (hydroxypropylcellulose) (HPC), evaluated on day 20); 57 % of control [survivor count not shown] under setting [1]; 45 [survivor count not shown], 65 [survivor count not shown], 120 % of control [survivor count not shown] under setting [2]; 15 [survivor count not shown], 59 [survivor count not shown], 111 [survivor count not shown], 160 % of control [survivor count not shown] under setting [3]; 7 [survivor count not shown] and 76 % of control [survivor count not shown] (dose: 1.0 mg/kg/injection, schedule: Q01DX010 (sc), vehicle: Klucel (hydroxypropylcellulose) (HPC), evaluated on day 20).

In the case of `C=C(C)C(=O)OCC12CCC(C)=CC1OC1C(=O)C(OC(=O)C(=C)C)C2(C)C12CO2` (stereo unspecified), the T/C runs as follows: (dose: 2.0 mg/kg/injection, schedule: Q04DX004 (sc), vehicle: saline with Tween-80, evaluated on day 15) 8 [survivor count not shown] and 43 % of control [survivor count not shown]; (dose: 4.0 mg/kg/injection, schedule: Q04DX004 (sc), vehicle: saline with Tween-80, evaluated on day 15) 34 [survivor count not shown] and 56 % of control [survivor count not shown].

On to `C[C@@H](O)[C@H]1/C=C/C=C\C(=O)O[C@@H]2C[C@H]3O[C@@H]4[C@@H]5OC5(C)CCC4(COC(=O)[C@H]4O[C@]4(C)[C@@H](O)CO1)[C@]2(C)[C@]31CO1` (stereo partly specified), for which the T/C runs as follows: (dose: 2.5 mg/kg/injection, schedule: Q01DX010 (sc), vehicle: saline + alcohol, evaluated on day 20) 110 % of control [survivor count not shown]; (dose: 5.0 mg/kg/injection, schedule: Q01DX010 (sc), vehicle: saline + alcohol, evaluated on day 20) 157 % of control [survivor count not shown]; (dose: 20.0 mg/kg/injection, schedule: Q01DX010 (sc), vehicle: saline + alcohol, evaluated on day 20) 190 % of control [survivor count not shown].

Consider `CC1=C[C@H]2O[C@@H]3C[C@H]4OC(=O)/C=C\C=C\C(C(C)O)OCC[C@@H](C)[C@H](O)C(=O)OC[C@@]2(CC1)[C@]4(C)[C@]31CO1` (stereo partly specified), for which the T/C (dose: 0.38 mg/kg/injection, schedule: Q04DX004 (sc), vehicle: saline with Tween-80, evaluated on day 15) is 149 % of control [survivor count not shown] and the T/C (dose: 3.0 mg/kg/injection, schedule: Q04DX004 (sc), vehicle: saline with Tween-80, evaluated on day 15) was 328 % of control [survivor count not shown].

In the case of `CC1=C[C@H]2O[C@@H]3[C@H](O)[C@@H](O)[C@](C)([C@@]2(CO)CC1)[C@@]31CO1`, the T/C was 66 % of control [survivor count not shown] (dose: 1.0 mg/kg/injection, schedule: Q01DX010 (sc), vehicle: saline, evaluated on day 20) and 156 % of control [survivor count not shown] (dose: 2.0 mg/kg/injection, schedule: Q01DX010 (sc), vehicle: saline, evaluated on day 20).

Regarding `CC(=O)OC[C@]12CC(=O)C(C)=C[C@H]1O[C@@H]1C(=O)[C@@H](OC(C)=O)[C@@]2(C)[C@@]12CO2`, the T/C is 109 % of control [survivor count not shown] (dose: 2.0 mg/kg/injection, schedule: Q04DX004 (sc), vehicle: water, evaluated on day 15); 62 % of control [survivor count not shown] (dose: 4.0 mg/kg/injection, schedule: Q04DX004 (sc), vehicle: water, evaluated on day 15); 86 % of control [survivor count not shown] (dose: 8.0 mg/kg/injection, schedule: Q04DX004 (sc), vehicle: water, evaluated on day 15).

`CC1=CC2OC3CC4OC(=O)/C=C/C=C/C(C(C)O)OCC/C(C)=C/C(=O)OCC2(CC1)C4(C)C31CO1` (stereo unspecified): the T/C (dose: 6.25 mg/kg/injection, schedule: Q01DX010 (sc), vehicle: saline with Tween-80, evaluated on day 11) was 145 % of control [survivor count not shown]; the T/C (dose: 12.5 mg/kg/injection, schedule: Q01DX010 (sc), vehicle: saline with Tween-80, evaluated on day 11) is 108 % of control [survivor count not shown]; the T/C (dose: 25.0 mg/kg/injection, schedule: Q01DX010 (sc), vehicle: saline with Tween-80, evaluated on day 11) is 99 % of control [survivor count not shown].

On to `CC(=O)OCC12CCC(C)=CC1OC1C(O)C(OC(C)=O)C2(C)C12CO2` (stereo unspecified), for which the T/C runs as follows: (dose: 0.13 mg/kg/injection, schedule: Q01DX010 (sc), vehicle: saline, evaluated on day 11) 53 % of control [survivor count not shown]; (dose: 0.25 mg/kg/injection, schedule: Q01DX010 (sc), vehicle: saline, evaluated on day 11) 80 % of control [survivor count not shown]; (dose: 0.5 mg/kg/injection, schedule: Q01DX010 (sc), vehicle: saline, evaluated on day 11) 56 % of control [survivor count not shown].
